Experimental data: PubChem BioAssay AID1259405 (NCATS, 2018)

- Test: 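Mouse-designed siRNAs used to find CHO productivity engineering targets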 (primary screen)
- Cells: Chinese hamster CHO-K1 ovary cells with stable secreted eGFP expression
- Reagent: single siRNA against mouse genes, 0.8 pmol siRNA per well (2 µl of 400 nM stock)
- Timing: 3 days
- Measured: 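Percent of the per-plate non-targeting control median for intracellular GFP per well by laser scanning cytometry and for cell viability by ATP luminescence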
- Scale: GFP, % of control: higher = more GFP per well, higher productivity; viability (ATP), % of control: higher = more viable cells (more ATP)
- Call rule: 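Called active when intracellular GFP, relative to negative control, is at or above 120%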
This is an unselected part of about 50,000 reagents tested. In the full data, about 4,000 (8%) got an active call. 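Mouse siRNA library applied to hamster cells; one well for each siRNA.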

| Target gene | PubChem SID | GFP, % of control | viability (ATP), % of control | activity call |
| --- | --- | --- | --- | --- |
| Or10ag54 (olfactory receptor family 10 subfamily AG member 54) | SID363544503 | 160 | 59.3 | active |
| Or10ag54 (olfactory receptor family 10 subfamily AG member 54) | SID363550831 | 89.9 | 89.6 | inactive |
| Or10ag54 (olfactory receptor family 10 subfamily AG member 54) | SID363557380 | 127 | 80.7 | active |
| Or10ag54 (olfactory receptor family 10 subfamily AG member 54) | SID363589679 | 127 | 80.7 | active |
| Or10ag54 (olfactory receptor family 10 subfamily AG member 54) | SID363589680 | 103 | 88.7 | inactive |
| Or10ag54 (olfactory receptor family 10 subfamily AG member 54) | SID363589681 | 96.4 | 95.1 | inactive |
| Plaa (phospholipase A2, activating protein) | SID363554693 | 66.6 | 50.6 | inactive |
| Plaa (phospholipase A2, activating protein) | SID363568140 | 70.5 | 76.4 | inactive |
| Plaa (phospholipase A2, activating protein) | SID363586199 | 82.8 | 115 | inactive |
| Frat2 (frequently rearranged in advanced T cell lymphomas 2) | SID363539872 | 70.1 | 69.4 | inactive |
| Frat2 (frequently rearranged in advanced T cell lymphomas 2) | SID363561173 | 50.2 | 73.6 | inactive |
| Frat2 (frequently rearranged in advanced T cell lymphomas 2) | SID363564209 | 73.3 | 78.3 | inactive |
| Znrf2 (zinc and ring finger 2) | SID363539728 | 88.2 | 80.8 | inactive |
| Znrf2 (zinc and ring finger 2) | SID363561029 | 66.4 | 53.1 | inactive |
| Znrf2 (zinc and ring finger 2) | SID363565119 | 126 | 49.9 | active |
| Pisd-ps1 (phosphatidylserine decarboxylase, pseudogene 1) | SID363556661 | 72.1 | 50.7 | inactive |
| Pisd-ps1 (phosphatidylserine decarboxylase, pseudogene 1) | SID363563565 | 114 | 66.1 | inactive |
| Pisd-ps1 (phosphatidylserine decarboxylase, pseudogene 1) | SID363587111 | 99.8 | 89.4 | inactive |
| Kbtbd12 (kelch repeat and BTB (POZ) domain containing 12) | SID363540907 | 72.8 | 79.9 | inactive |
| Kbtbd12 (kelch repeat and BTB (POZ) domain containing 12) | SID363555534 | 66.6 | 73.8 | inactive |
| Kbtbd12 (kelch repeat and BTB (POZ) domain containing 12) | SID363565823 | 81.9 | 78.3 | inactive |
| Depdc1b (DEP domain containing 1B) | SID363545884 | 98.8 | 58.6 | inactive |
| Depdc1b (DEP domain containing 1B) | SID363549397 | 64.1 | 76.7 | inactive |
| Depdc1b (DEP domain containing 1B) | SID363563203 | 63 | 73.1 | inactive |
| Mc4r (melanocortin 4 receptor) | SID363571120 | 55.9 | 75.3 | inactive |
| Mc4r (melanocortin 4 receptor) | SID363571472 | 85.6 | 77.1 | inactive |
| Mc4r (melanocortin 4 receptor) | SID363571824 | 78.6 | 64.1 | inactive |
| Svs5 (seminal vesicle secretory protein 5) | SID363556219 | 89.2 | 79.5 | inactive |
| Svs5 (seminal vesicle secretory protein 5) | SID363586669 | 68.2 | 82.7 | inactive |
| Svs5 (seminal vesicle secretory protein 5) | SID363588777 | 127 | 100 | active |
| Ppfia3 | SID363543753 | 45.5 | 44.3 | inactive |
| Ppfia3 | SID363551489 | 95.8 | 76.8 | inactive |
| Ppfia3 | SID363559094 | 87.8 | 73 | inactive |
| Csrp3 (cysteine and glycine-rich protein 3) | SID363572298 | 5.16 | 21.4 | inactive |
| Csrp3 (cysteine and glycine-rich protein 3) | SID363574058 | 49.6 | 59.5 | inactive |
| Or1j21 (olfactory receptor family 1 subfamily J member 21) | SID363554105 | 110 | 70.4 | inactive |
| Or1j21 (olfactory receptor family 1 subfamily J member 21) | SID363567552 | 55.3 | 40.1 | inactive |
| Or1j21 (olfactory receptor family 1 subfamily J member 21) | SID363584909 | 91.9 | 98.4 | inactive |
| Kash5 (KASH domain containing 5) | SID363547585 | 127 | 98.8 | active |
| Kash5 (KASH domain containing 5) | SID363558354 | 54.6 | 88.9 | inactive |
| Kash5 (KASH domain containing 5) | SID363560112 | 95.2 | 89.4 | inactive |
| Cass4 (Cas scaffolding protein family member 4) | SID363539851 | 63.2 | 75.6 | inactive |
| Cass4 (Cas scaffolding protein family member 4) | SID363561152 | 121 | 60.5 | active |
| Cass4 (Cas scaffolding protein family member 4) | SID363564188 | 90.5 | 62.6 | inactive |
| Actl11 (actin-like 11) | SID363540914 | 74.8 | 86 | inactive |
| Actl11 (actin-like 11) | SID363555541 | 67.5 | 75 | inactive |
| Actl11 (actin-like 11) | SID363565830 | 32 | 76.1 | inactive |
| Neurod4 (neurogenic differentiation 4) | SID363573715 | 123 | 79.8 | active |
| Neurod4 (neurogenic differentiation 4) | SID363581459 | 94.7 | 73.4 | inactive |
| Neurod4 (neurogenic differentiation 4) | SID363583923 | 90.7 | 99.8 | inactive |
| Cgas (cyclic GMP-AMP synthase) | SID363539818 | 67.6 | 50.7 | inactive |
| Cgas (cyclic GMP-AMP synthase) | SID363561119 | 82.4 | 83.6 | inactive |
| Cgas (cyclic GMP-AMP synthase) | SID363565209 | 52.7 | 57 | inactive |
| Prss27 (serine protease 27) | SID363574256 | 85.4 | 102 | inactive |
| Prss27 (serine protease 27) | SID363575312 | 69.5 | 36.5 | inactive |
| Prss27 (serine protease 27) | SID363579888 | 52.7 | 58 | inactive |
| Fmn1 (formin 1) | SID363541223 | 65.5 | 58.2 | inactive |
| Fmn1 (formin 1) | SID363555850 | 60 | 65.7 | inactive |
| Fmn1 (formin 1) | SID363566139 | 91 | 71.9 | inactive |
| Catsper4 (cation channel, sperm associated 4) | SID363547293 | 73.8 | 75.7 | inactive |
| Catsper4 (cation channel, sperm associated 4) | SID363558062 | 90.6 | 83.7 | inactive |
| Catsper4 (cation channel, sperm associated 4) | SID363559820 | 86.6 | 65.1 | inactive |
| Gmip (Gem-interacting protein) | SID363581951 | 52.9 | 125 | inactive |
| Gmip (Gem-interacting protein) | SID363589445 | 80.8 | 82.2 | inactive |
| Wbp11 (WW domain binding protein 11) | SID363556856 | 55.1 | 43.9 | inactive |
| Wbp11 (WW domain binding protein 11) | SID363563760 | 72.6 | 73 | inactive |
| Wbp11 (WW domain binding protein 11) | SID363587306 | 82.9 | 77.4 | inactive |
| Mastl (microtubule associated serine/threonine kinase-like) | SID363570964 | 59.8 | 76.5 | inactive |
| Phka2 (phosphorylase kinase alpha 2) | SID363573303 | 63.7 | 68.7 | inactive |
| Phka2 (phosphorylase kinase alpha 2) | SID363588542 | 107 | 95.2 | inactive |
| Ppdpf | SID363543908 | 87.8 | 102 | inactive |
| Ppdpf | SID363551644 | 17.4 | 37.7 | inactive |
| Ppdpf | SID363559249 | 160 | 147 | active |
| AI597479 (expressed sequence AI597479) | SID363546766 | 60.3 | 54.8 | inactive |
| AI597479 (expressed sequence AI597479) | SID363548522 | 83.2 | 93.5 | inactive |
| AI597479 (expressed sequence AI597479) | SID363560700 | 73.3 | 80.7 | inactive |
| Ass1 (argininosuccinate synthetase 1) | SID363541818 | 79.2 | 67.6 | inactive |
| Ass1 (argininosuccinate synthetase 1) | SID363553410 | 41.6 | 47 | inactive |
| Ass1 (argininosuccinate synthetase 1) | SID363566734 | 49.8 | 57.7 | inactive |
| Zdhhc19 (zinc finger, DHHC domain containing 19) | SID363556625 | 99.1 | 80.2 | inactive |
| Zdhhc19 (zinc finger, DHHC domain containing 19) | SID363563529 | 58.8 | 69.3 | inactive |
| Zdhhc19 (zinc finger, DHHC domain containing 19) | SID363587075 | 57.4 | 73.3 | inactive |
| Cd22 (CD22 antigen) | SID363572952 | 100 | 99.9 | inactive |
| Cd22 (CD22 antigen) | SID363577528 | 83.2 | 85.2 | inactive |
| Cd22 (CD22 antigen) | SID363581048 | 93.3 | 90.7 | inactive |
| Lpar6 (lysophosphatidic acid receptor 6) | SID363571243 | 90.7 | 81.2 | inactive |
| Lpar6 (lysophosphatidic acid receptor 6) | SID363571595 | 70 | 71.4 | inactive |
| Lpar6 (lysophosphatidic acid receptor 6) | SID363571947 | 74 | 30.1 | inactive |
| Sptb (spectrin beta, erythrocytic) | SID363541553 | 41.4 | 63.3 | inactive |
| Sptb (spectrin beta, erythrocytic) | SID363556180 | 133 | 34.4 | active |
| Sptb (spectrin beta, erythrocytic) | SID363566469 | 65.5 | 49.8 | inactive |
| Agfg1 (ArfGAP with FG repeats 1) | SID363570184 | 129 | 86.4 | active |
| Agfg1 (ArfGAP with FG repeats 1) | SID363576520 | 132 | 82.1 | active |
| Agfg1 (ArfGAP with FG repeats 1) | SID363579688 | 49.6 | 40.4 | inactive |
| Yipf4 (Yip1 domain family, member 4) | SID363543613 | 91.5 | 90.7 | inactive |
| Yipf4 (Yip1 domain family, member 4) | SID363553106 | 49 | 57.5 | inactive |
| Yipf4 (Yip1 domain family, member 4) | SID363558954 | 66.5 | 76 | inactive |
| 4930471G03Rik (RIKEN cDNA 4930471G03 gene) | SID363542549 | 120 | 67.7 | active |
| 4930471G03Rik (RIKEN cDNA 4930471G03 gene) | SID363552040 | 49.5 | 66.4 | inactive |
| 4930471G03Rik (RIKEN cDNA 4930471G03 gene) | SID363559645 | 67.9 | 90.8 | inactive |
| Suox (sulfite oxidase) | SID363568785 | 89.8 | 84.3 | inactive |
| Suox (sulfite oxidase) | SID363576177 | 101 | 68.1 | inactive |
| Suox (sulfite oxidase) | SID363578993 | 104 | 81.5 | inactive |
| Chchd5 (coiled-coil-helix-coiled-coil-helix domain containing 5) | SID363550071 | 94.4 | 105 | inactive |
| Chchd5 (coiled-coil-helix-coiled-coil-helix domain containing 5) | SID363564580 | 64.2 | 85.6 | inactive |
| Chchd5 (coiled-coil-helix-coiled-coil-helix domain containing 5) | SID363588125 | 85.7 | 80.7 | inactive |
| Sowahd (sosondowah ankyrin repeat domain family member D) | SID363542858 | 53.8 | 49.1 | inactive |
| Sowahd (sosondowah ankyrin repeat domain family member D) | SID363546375 | 110 | 55.6 | inactive |
| Sowahd (sosondowah ankyrin repeat domain family member D) | SID363548131 | 127 | 106 | active |
